Measured values as given in PMC3197640, “Human Engineered Heart Tissue as a Versatile Tool in Basic Research and Preclinical Toxicology” (PLoS ONE, 2011).

Tested on: human engineered heart tissue (hEHT)
Protocol: Calcium-concentration response curves were established in DMEM, 1% penicillin/streptomycin, 10 mM HEPES, and 100 µM acetylcysteine with calcium concentrations adjusted to the desired final concentration (0.2–3.0 mmol/L). Equilibration time was 20 minutes. Measurements were performed under spontaneous activity by automated video-optical recording and analysis (customized software, Consulting Team Machine Vision) as previously described. Contractile force F was calculated from the degree of post deflection δ (µm), silicone post length (L) and radius (R) and elastic modulus (E) by the formula F = 3πER^4δ/4L^3 [29]. Contraction- and relaxation velocities were calculated as the average maximal steepness of twitch contraction or relaxation, respectively. Each value represents the mean of all measurable contraction twitches in the recording period of 60 seconds per hEHT.
EHTs were equilibrated in DMEM, 1% penicillin/streptomycin, 10 mM HEPES, 100 µM acetylcysteine for one hour. […] Isoprenaline and carbachol were used at 100 nM and 10 µM, respectively.
Intervals between two contractions were determined for all recordings. […] Interval scatter was therefore defined as the length between 10th and 90th percentile (interdecile range, IDR). Statistical difference between groups of biological replicas were determined with Mann-Whitney U Test (*P<0.05).

Cc1cccc(CCN2CCC(C(=O)c3ccc(NS(C)(=O)=O)cc3)CC2)n1 [E-4031]
Concentration at which force of contraction and contraction velocity declined significantly: 30 nM | Threshold concentration at which the compound significantly decreased relaxation velocity: 3 nM | Threshold concentration inducing irregular beating patterns (RR-scatter): 10 nM
